Results are given in words; binding and its absence hold for the method and conditions named. Binding can be weak; no strength is given.
Biological target: β-tubulin of the human sperm SMT (human (endogenous in spermatozoa))
Test: cryo-EM structure; single-particle cryo-EM of the 8-nm repeat of native singlet microtubules at the distal tip of demembranated human spermatozoa; 6.0 Å consensus, 4.5 to 4.7 Å after protofilament-focused refinement

- binding: binds
B1: SPACA9 (protein, UniProt Q96E40 1-222)
chain: MNEVKESLRSIEQKYKLFQQQQLTFTAALEHCRENAHDKIRPISSIGQVQSYMEHYCNSSTDRRVLLMFLDICSELNKLCQHFEAVHSGTPVTNNLLEKCKTLVSQSNDLSSLRAKYPHDVVNHLSCDEARNHYGGVVSLIPLILDLMKEWIAHSEKLPRKVLQHVSEPQAHQESTRGAARPAQAIGTQPRATKHKCRQLTKASLKPRGCSKPPWRPPGGKL
